The source of these data is patent US6716428B1 (The Ohio State University Research Foundation, priority 1999, dated 2004).

The series is described as follows: peptide synthesis. The note with it: purification step, recovery from crude fraction, one disulfide bridge, sequence written open.

In turn, Ala-(Pro)6-(38-57) had a step yield of 8.5%.
